{
  "source": "patent US10729157B2",
  "about": "“Methods for regulating weight and size of animals” (Oragenics, Inc., priority 2004, dated 2020)",
  "data": [
    {"smiles": "NCC(=O)O", "note": "[glycine]", "values": [
      {"measurement": "amounts of food or water consumed", "setting": "adult female Fisher rats, between groups, whole experiment", "value": "No significant differences"},
      {"measurement": "food consumption (cause of weight loss)", "setting": "adult male Fisher rats, 5% and 20% glycine diets", "value": "not a result of caloric restriction due to reduced food intake"}
    ]}
  ]
}
